Test results: patent US7067619
Results are given in words; binding and its absence hold for the method and conditions named. Binding calls can cover weak binding; strength is not graded here.

Molecular target: αvβ1 integrin on CHO cell line B2/v7
Experiment: cell attachment to peptide coated on plastic

**Q.** GACRRETAWACGA (disulfide bond between the two cysteines (cyclic)) [cyclic peptide …] was tested. Which binding did it give?
**A.** Its binding is “binds”.
